In paper PMC6370850 one finds binding data, which are given here for 1 molecule.

Results are given in words; binding and its absence hold for the method and conditions named. Binding seen in cells or lysates may run through a third protein.

The experiment deals with Flag-Stat3 ΔLD (mouse). Description: co-IP; Flag or Xpress immunoprecipitation of protein extracts from HEK293T cells co-transfected with Flag-Stat3 and Xpress-Hectd3 constructs (HA-Ub co-transfected in Fig. 9a); immunoblot. In general terms: Immunoblotting shows a protein as a band on a membrane.

B1: Xpress-Hectd3 (enzyme, UniProt Q3U487 1-861)
chain: MAGPGPGAALESPRQLLGRVRFLAEAARSLRAGLPLPAALAFVPREVLYKLYKDPAGPSRVLLPVWEAEGLGLRVGAVGAAPGTGSGPLRAARDSIELRRGACVRTTGEELCNGHGLWVKLTKEQLAEHLSDCSLDEGWLLVCRPAEGGARLVPIDTPDHLQRQQQLFGVDYRPVLRWEQVVDLTYSHRLGSRPQPAEAYTEAIQRLLYVPPTWTYECDEDLIHFLYDHLGKEDENLGSVKQYVESIDVSSYTEEFNVSCLTDSNADTYWESDGSQCQHWVRLTMKKGTIVKKLLLTVDTTDDNFMPKRVVVYGGEGDNLKKLSDVNIDETLIGDVCVLEDMTVHLPIIEIRIVECRDDGIDVRLRGVKIKSSRQRELGLNADLFQPASLVRYPRLEGTDPEVLYRRAVLLQRFIKILDSVLHHLVPAWDHTLGTFSEIKQVKQFLLLSRQRPSLVAQCLRDSESSKPSFMPRLYINRRLAMEHRACPSRDPACKNAVFTQVYEGLKPSDKYEKPLDYRWPMRYDQWWECKFIAEGIIDQGGGFRDSLADMSEELCPSSADTPVPLPFFVRTANQGNGTGEARDMYVPNPSCRDFAKYEWIGQLMGAALRGKEFLVLALPGFVWKQLSGEEVSWSKDFPAVDSVLVKLLEVMEGVDKETFEFKFGKELTFTTVLSDQQVVELIPGGTGIVVEYEDRSRFIQLVRKARLEESKEQVAAMQAGLLKVVPQAVLDLLTWQELEKKVCGDPEVTVDALRKLTRFEDFEPSDTRVQYFWEALNNFTNEDRSRFLRFVTGRSRLPARIYIYPDKLGYETTDALPESSTCSSTLFLPHYASAKVCEEKLRYAAYNCVAIDTDMSPWEE
Regarding B1, the binding entry was “no binding”.
